## Assay results

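Vaccinia-infected cells with a two-color viral stage reporter; Venus fluorescence read on a plate reader; the cell line is not named here; timing not stated here.
The test concentration is not given here.
Percent change in Venus reporter signal; lower (more negative) values mean stronger inhibition of that viral stage.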

Values are in %.
How 0% and 100% were set is not given here.
Common to all entries: measured here: Venus reporter, other viral stage.
This is a side read-out of the assay, for part of the compounds, not drawn at random.

compound	activity change (Venus) (%)
C[C@@H]1CCCCO[C@H](CN(C)S(=O)(=O)c2cccs2)[C@H](C)CN([C@@H](C)CO)C(=O)c2cc(NS(=O)(=O)c3ccc(Cl)cc3)ccc2O1	-30.17
COc1ccccc1C#Cc1ccc2c(c1)O[C@H](CN(C)Cc1ccccc1)[C@@H](C)CN([C@@H](C)CO)S2(=O)=O	-30.61
C[C@H]1CN([C@@H](C)CO)C(=O)Cc2cc(NC(=O)CCCCCC(=O)Nc3ccccc3N)ccc2O[C@H]1CN(C)Cc1ccc(Cl)c(Cl)c1	-26.59
OC[C@H]1[C@@H](c2ccc(C3=CCCC3)cc2)[C@H]2CN(CCC(F)(F)F)CCCCN21	-34.22
CC(C)CC#Cc1ccc([C@@H]2[C@@H](CO)N3C(=O)CN(C(=O)Nc4cc(F)ccc4F)C[C@H]23)cc1	-35.1
C[C@@H]1CCCCO[C@@H](CN(C)S(=O)(=O)c2ccc(Cl)cc2)[C@H](C)CN([C@H](C)CO)C(=O)c2cc(NS(=O)(=O)c3ccc(F)cc3)ccc2O1	-48.5
CC(C)CC#Cc1ccc2c(c1)O[C@@H](CN(C)Cc1ccncc1)[C@H](C)CN([C@@H](C)CO)S2(=O)=O	-67.12
O=C(C[C@@H]1C=C[C@@H](NS(=O)(=O)c2ccc(F)cc2)[C@H](CO)O1)NCc1ccc(Cl)c(Cl)c1	-34.54
Cc1cccc(S(=O)(=O)N2CCCCN3[C@@H](CO)[C@@H](c4ccc(-c5ccncc5)cc4)[C@@H]3C2)c1	-42.38
O=C([C@H]1[C@H](CO)[C@H]2Cn3c(ccc(/C=C/c4ccccc4)c3=O)[C@H]2N1CC1CC1)N1CCCCC1	-27.44
COc1cccc(-c2ccc3c(c2)O[C@H](CN(C)C(=O)c2ccccc2F)[C@@H](C)CN([C@H](C)CO)S3(=O)=O)c1	-23.91
C[C@@H]1CCCCO[C@H](CN(C)CC2CC2)[C@H](C)CN([C@@H](C)CO)C(=O)c2cc(NS(=O)(=O)c3ccc(Cl)cc3)ccc2O1	-31.31
C[C@@H]1CN([C@@H](C)CO)C(=O)Cc2cc(NS(=O)(=O)c3cccs3)ccc2O[C@H]1CN(C)Cc1ccc(C(F)(F)F)cc1	-68.27
CO[C@H]1CN(C)C(=O)c2cc(NC(=O)Nc3ccc(C(F)(F)F)cc3)ccc2OC[C@@H](C)NC[C@H]1C	-20.83
N#Cc1cccc(-c2ccc([C@H]3[C@@H](CO)N4CCCCN(C(=O)Nc5ccc(F)cc5)C[C@H]34)cc2)c1	-45.85
O=C(Nc1cccc(F)c1)N1CC(=O)N2[C@H](CO)[C@H](c3ccc(-c4cccc(F)c4)cc3)[C@H]2C1	-48.73
N#Cc1cccc(-c2ccc3c(c2)[C@@H]2[C@@H](CCN2C(=O)c2ccccc2F)[C@H](CO)N3)c1	-31.23
C[C@H](CO)N1C[C@H](C)[C@@H](CN(C)CC2CCCC2)Oc2ncc(C#Cc3cccc(F)c3)cc2C1=O	-44.93
CO[C@@H]1CN(C)C(=O)c2cc(NC(=O)c3nc4ccccc4s3)ccc2OC[C@@H](C)N(Cc2ccncc2)C[C@@H]1C	-34.83
COc1ccccc1CNC(=O)C[C@@H]1CC[C@@H]2[C@H](COC[C@H](O)CN2C(=O)Nc2ccc(C(F)(F)F)cc2)O1	-22.59
C[C@H]1CN([C@@H](C)CO)S(=O)(=O)c2ccc(/C=C/c3ccccc3)cc2O[C@H]1CN(C)C(=O)Nc1cc(F)ccc1F	-28.14
CN1C(=O)c2cc(NS(C)(=O)=O)ccc2OC[C@@H]2O[C@H](CC(=O)NCc3ccc(-c4ccccc4)cc3)CC[C@@H]21	-16.87
C[C@@H]1CN([C@H](C)CO)C(=O)c2cccc(NC(=O)Nc3ccccc3)c2O[C@@H]1CN(C)C(=O)NC1CCCCC1	-42.91
N#C[C@@H]1[C@H](c2ccc(-c3cccc(F)c3)cc2)[C@H](CO)N1C(=O)NC1CCCC1	-39.83
N#Cc1ccc(-c2ccc([C@H]3[C@@H](CO)N4CCCCN(C(=O)Nc5ccc(F)cc5)C[C@H]34)cc2)cc1	-54.22
COc1ccc2c3c([nH]c2c1)[C@H](CO)N(C(=O)C1CCC1)CC31CCN(Cc2cccc(F)c2)CC1	-45.86
C[C@@H]1CN([C@@H](C)CO)C(=O)c2cc(NC(=O)CCC(F)(F)F)ccc2O[C@@H](C)CCCCO[C@H]1CN(C)Cc1ccc(Cl)c(Cl)c1	-70.92
C[C@@H]1CN([C@H](C)CO)C(=O)c2cccc(NC(=O)Nc3ccc(C(F)(F)F)cc3)c2O[C@@H]1CN(C)S(=O)(=O)c1ccc(Cl)cc1	-44.39
N#C[C@H]1[C@@H](c2ccc(C#CC3CCCC3)cc2)[C@H](CO)N1S(=O)(=O)c1ccccc1	-28.03
C[C@H](CO)N1C[C@H](C)[C@H](CN(C)C(=O)Nc2ccc(C(F)(F)F)cc2)Oc2c(NC(=O)NC3CCCCC3)cccc2C1=O	-55.12
Cc1cccc(CN(C)C[C@@H]2Oc3ncc(-c4cccc(C(F)(F)F)c4)cc3C(=O)N([C@H](C)CO)C[C@@H]2C)c1	-29.63

From PubChem BioAssay record AID1053133 (Broad Institute, 2014).